# From the supplement of paper PMC8728848
# This is one part of the list.
# B1: MXA PilAct-eGFP (Myxococcus xanthus), Q59589 (protein)
# chain: MRVSRFNPRNRGFTLIELMIVVAIIGILAAIAIPNFIKFQARSKQSEAKTNLKALYTAQKSFFSEKDRYSDFANEIGFAPERGNRYGYRVSAAAGDCEVRNAADLPVPAAGVPCISNDSFRFGANSAIDDPTPVVARFVPQGAAGWNTTLGVQPTIADCPNCNFFAGARGNADNEATFDDWVIAGFEGSGQVGPCSEAGNVASGTPYNTRNDVACDGAAQ
# Legend:
# Test in all cases: glycan array binding signal (z-score within array); higher = stronger binding
# Details in all cases: glycan notation: IUPAC condensed, linker removed
# [1] = biological target: Man(a1-2)Man(a1-3)[Man(a1-2)Man(a1-6)]Man(a1-6)[Man(a1-2)Man(a1-2)Man(a1-3)]Man
# Method in brief: (§1)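 From the Consortium for Functional Glycomics database, 3228 arrays were curated, keeping only those whose protein sequence was available. Binding is given as a within-array Z-score averaged across arrays sharing a protein sequence and across linkers. Negative Z-scores can be read as non-binding.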
# [2] = biological target: Man(a1-2)Man(a1-3)[Man(a1-2)Man(a1-6)]Man(a1-6)[Man(a1-2)Man(a1-2)Man(a1-3)]Man(b1-4)GlcNAc(b1-4)GlcNAc
# Method in brief: as §1
# [3] = biological target: Man(a1-2)Man(a1-3)[Man(a1-6)]Man(a1-6)[Man(a1-2)Man(a1-3)]Man(b1-4)GlcNAc(b1-4)GlcNAc
# Method in brief: as §1
# [4] = biological target: Man(a1-2)Man(a1-6)[Man(a1-3)]Man(a1-6)[Man(a1-2)Man(a1-2)Man(a1-3)]Man
# Method in brief: as §1
# [5] = biological target: Man(a1-2)Man(a1-6)[Man(a1-3)]Man(a1-6)[Man(a1-2)Man(a1-2)Man(a1-3)]Man(b1-4)GlcNAc(b1-4)GlcNAc
# Method in brief: as §1
# [6] = biological target: Man(a1-3)[Man(a1-6)]Man
# Method in brief: as §1
# [7] = biological target: Man(a1-3)[Man(a1-6)]Man(a1-6)[Man(a1-2)Man(a1-3)]Man(b1-4)GlcNAc(b1-4)GlcNAc
# Method in brief: as §1
# [8] = biological target: Man(a1-3)[Man(a1-6)]Man(a1-6)[Man(a1-3)]Man
# Method in brief: as §1
# [9] = biological target: Man(a1-3)[Man(a1-6)]Man(a1-6)[Man(a1-3)]Man(b1-4)GlcNAc(b1-4)GlcNAc
# Method in brief: as §1
# [10] = biological target: Man(a1-3)[Man(a1-6)]Man(b1-4)GlcNAc(b1-4)GlcNAc
# Method in brief: as §1
# [11] = biological target: Man(a1-3)[Man(a1-6)]Man(b1-4)GlcNAc(b1-4)[Fuc(a1-6)]GlcNAc
# Method in brief: as §1
# [12] = biological target: Man(a1-6)Man
# Method in brief: as §1
# [13] = biological target: Man(b1-4)GlcNAc
# Method in brief: as §1
# [14] = biological target: MurNAc(b1-4)GlcNAc
# Method in brief: as §1
# [15] = biological target: Neu5Ac(a2-3)Gal
# Method in brief: as §1
# [16] = biological target: Neu5Ac(a2-3)Gal(b1-3)GalNAc
# Method in brief: as §1
# [17] = biological target: Neu5Ac(a2-3)Gal(b1-3)GalNAc(b1-3)Gal(a1-4)Gal(b1-4)Glc
# Method in brief: as §1
# [18] = biological target: Neu5Ac(a2-3)Gal(b1-3)GalNAc(b1-4)Gal(b1-4)Glc
# Method in brief: as §1
# [19] = biological target: Neu5Ac(a2-3)Gal(b1-3)GalNAc(b1-4)[Neu5Ac(a2-3)]Gal(b1-4)Glc
# Method in brief: as §1
# [20] = biological target: Neu5Ac(a2-3)Gal(b1-3)GalNAc(b1-4)[Neu5Ac(a2-8)Neu5Ac(a2-3)]Gal(b1-4)Glc
# Method in brief: as §1
# [21] = biological target: Neu5Ac(a2-3)Gal(b1-3)GalNAc6S
# Method in brief: as §1
# [22] = biological target: Neu5Ac(a2-3)Gal(b1-3)GlcNAc
# Method in brief: as §1
# [23] = biological target: Neu5Ac(a2-3)Gal(b1-3)GlcNAc(b1-2)Man
# Method in brief: as §1
# [24] = biological target: Neu5Ac(a2-3)Gal(b1-3)GlcNAc(b1-2)Man(a1-3)[GlcNAc(b1-4)][Neu5Ac(a2-3)Gal(b1-3)GlcNAc(b1-2)Man(a1-6)]Man(b1-4)GlcNAc(b1-4)GlcNAc
# Method in brief: as §1
# [25] = biological target: Neu5Ac(a2-3)Gal(b1-3)GlcNAc(b1-2)Man(a1-3)[Neu5Ac(a2-3)Gal(b1-3)GlcNAc(b1-2)Man(a1-6)]Man(b1-4)GlcNAc(b1-4)GlcNAc
# Method in brief: as §1
# [26] = biological target: Neu5Ac(a2-3)Gal(b1-3)GlcNAc(b1-2)[Neu5Ac(a2-3)Gal(b1-3)GlcNAc(b1-4)]Man(a1-6)[Neu5Ac(a2-3)Gal(b1-3)GlcNAc(b1-2)Man(a1-3)]Man(b1-4)GlcNAc(b1-4)GlcNAc
# Method in brief: as §1
# [27] = biological target: Neu5Ac(a2-3)Gal(b1-3)GlcNAc(b1-3)Gal(b1-3)GlcNAc
# Method in brief: as §1
# [28] = biological target: Neu5Ac(a2-3)Gal(b1-3)GlcNAc(b1-3)Gal(b1-4)GlcNAc
# Method in brief: as §1
# [29] = biological target: Neu5Ac(a2-3)Gal(b1-3)GlcNAc(b1-3)GalNAc
# Method in brief: as §1
# [30] = biological target: Neu5Ac(a2-3)Gal(b1-3)GlcNAc(b1-6)GalNAc
# Method in brief: as §1
# [31] = biological target: Neu5Ac(a2-3)Gal(b1-3)GlcNAc6S
# Method in brief: as §1
# [32] = biological target: Neu5Ac(a2-3)Gal(b1-3)[Fuc(a1-4)]GlcNAc
# Method in brief: as §1
# [33] = biological target: Neu5Ac(a2-3)Gal(b1-3)[Fuc(a1-4)]GlcNAc(b1-3)Gal(b1-3)[Fuc(a1-4)]GlcNAc
# Method in brief: as §1
# [34] = biological target: Neu5Ac(a2-3)Gal(b1-3)[Fuc(a1-4)]GlcNAc(b1-3)Gal(b1-4)[Fuc(a1-3)]GlcNAc
# Method in brief: as §1
# [35] = biological target: Neu5Ac(a2-3)Gal(b1-3)[GlcNAc(b1-6)]GalNAc
# Method in brief: as §1
# [36] = biological target: Neu5Ac(a2-3)Gal(b1-3)[Neu5Ac(a2-6)]GalNAc
# Method in brief: as §1
# [37] = biological target: Neu5Ac(a2-3)Gal(b1-3)[Neu5Ac(a2-6)]GlcNAc(b1-3)[Fuc(a1-3)[Gal(b1-4)]GlcNAc(b1-6)]Gal(b1-4)Glc
# Method in brief: as §1
# [38] = biological target: Neu5Ac(a2-3)Gal(b1-3)]Neu5Ac(a2-3)Gal(b1-4)]GlcNAc
# Method in brief: as §1
binder,measurement,setting,value
B1,glycan array binding signal (z-score),[1],-0.555
same,glycan array binding signal (z-score),[2],0.553
same,glycan array binding signal (z-score),[3],-2
same,glycan array binding signal (z-score),[4],1.36
same,glycan array binding signal (z-score),[5],-0.088
same,glycan array binding signal (z-score),[6],-0.412
same,glycan array binding signal (z-score),[7],-0.793
same,glycan array binding signal (z-score),[8],-0.26
same,glycan array binding signal (z-score),[9],-0.784
same,glycan array binding signal (z-score),[10],-0.147
same,glycan array binding signal (z-score),[11],-1.3
same,glycan array binding signal (z-score),[12],0.911
same,glycan array binding signal (z-score),[13],-0.86
same,glycan array binding signal (z-score),[14],-0.806
same,glycan array binding signal (z-score),[15],1.14
same,glycan array binding signal (z-score),[16],-0.41
same,glycan array binding signal (z-score),[17],-0.393
same,glycan array binding signal (z-score),[18],-0.379
same,glycan array binding signal (z-score),[19],-0.607
same,glycan array binding signal (z-score),[20],-0.584
same,glycan array binding signal (z-score),[21],-1.44
same,glycan array binding signal (z-score),[22],-0.341
same,glycan array binding signal (z-score),[23],-0.344
same,glycan array binding signal (z-score),[24],-0.92
same,glycan array binding signal (z-score),[25],-0.26
same,glycan array binding signal (z-score),[26],1.85
same,glycan array binding signal (z-score),[27],0.225
same,glycan array binding signal (z-score),[28],-0.011
same,glycan array binding signal (z-score),[29],1.58
same,glycan array binding signal (z-score),[30],-0.507
same,glycan array binding signal (z-score),[31],-1.38
same,glycan array binding signal (z-score),[32],-0.236
same,glycan array binding signal (z-score),[33],0.226
same,glycan array binding signal (z-score),[34],1.71
same,glycan array binding signal (z-score),[35],0.218
same,glycan array binding signal (z-score),[36],1.32
same,glycan array binding signal (z-score),[37],-0.034
same,glycan array binding signal (z-score),[38],-0.635

# An excerpt of these results, tab-delimited.
binder	measurement	setting	value
B1	glycan array binding signal (z-score)	[31]	-1.38
same	glycan array binding signal (z-score)	[32]	-0.236
